Data from publication PMC9322950 (Pharmaceutics, 2022).

Test system: absolute neutrophil count (ANC)
Assay: Semi-mechanistic PK/PD neutropenia model (exposure–toxicity relationship, ANC time course)
Assay type: in vivo, human
Conditions: final PK/PD model
Method: ANC was directly retrieved from the patients' medical records up to the date of the last PK observation. The most recent ANC value in the three months before palbociclib initiation was retained as the base value. Blood sampling for ANC measurement was performed either concomitantly or separately from that for palbociclib quantification. The proliferation, maturation, and homeostatic regulation of neutrophils were mimicked by a series of 5 compartments, as described in the model developed by Friberg et al.. This structural model was directly applied to our data. The first compartment represented stem cells and proliferating precursor cells in the bone marrow with the systematic renewal of proliferative cells' production modeled by the rate constant kprol. This compartment was followed by three transit compartments to account for the delay between proliferation and maturation according to the first-order rate constant ktr, defined as n+1/MTT , where MTT is the mean transit time of neutrophils. The last compartment characterized the blood circulation with the neutrophil elimination rate constant kcirc. The rate constants kprol, ktr, and […] assumed to be equal, as in the original model. […] ANCs were log-transformed before the analysis, and an additive error on the log scale was used to describe residual variability. Owing to long computation runtime, neutropenia model development was first performed by fixing the PK parameters that were estimated together with PD parameters in the final model. Potential associations between post hoc individual parameter estimates and demographic or clinical characteristics were first visually explored and then tested in the model. […] The characteristics available for testing their effect on PD parameters were as follows: age, body weight, ALK, BILT, gamma-glutamyltransferase (GGT), albumin, AST, ALT, eGFR, association with fulvestrant, chemotherapy in the previous treatment line, and POCT measurement. […] Despite high inter-individual variability on EC50, covariates were not tested on this parameter and were substituted by covariates on Emax as recommended in good practices for exposure-response analyses. Baseline values of continuous covariates were tested on the base ANC parameter while time-varying values were tested on Emax. Continuous covariates were centered and normalized on their median value and tested by linear or allometric functions as appropriate. Missing data were imputed to the population median value. Categorical covariates were coded as 0 or 1, and missing data were first treated as an additional category and then regrouped according to their parameter estimates. […] The final PK/PD model was evaluated with a non-parametric bootstrap using 502 replicates of the initial dataset. […]

[1] = bootstrap median (n = 502 samples)

CC(=O)c1c(C)c2cnc(Nc3ccc(N4CCNCC4)cn3)nc2n(C2CCCC2)c1=O [palbociclib, Palbociclib]
MTT (mean transit time) [1]: 121 h | γ (feedback parameter) [1]: 0.13 | MTT (mean transit time) (estimate): 122 h | γ (feedback parameter) (estimate): 0.13
